# Values from PubChem BioAssay AID1259254 (NCATS, 2017).
# Screen: 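Genome-wide screen for genes that prevent DNA re-replication in cancer cells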 (primary screen)
# System: human HCT116 colorectal cancer cells
# Reagent: single siRNA against human genes
# Time to read-out: 3 days
# Read-out: 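Nuclei stained with Hoechst and imaged; cell-cycle phase assigned by DNA content; G2 share scaled per plate, non-targeting siRNA 0%, GMNN siRNA 100%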
# Direction: G2 robust z-score: higher = more G2 cells, more excess DNA replication
# Hit rule: 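Active siRNAs have a G2 robust z of 5 or more median absolute deviations over the median, which in these data means about 38% or higher of GMNN control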
# This is one part, drawn at random, of about 59,000 deposited reagents. Over the whole deposit, about 1,550 (2.6%) are marked active. 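G2 share is only a proxy for re-replication; each gene was hit by three separate siRNAs, and active genes were retested.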 Reagents against one gene are numbered here. Further read-outs or replicates are left out here. The record does not give: the amount of reagent.
target,siRNA no.,G2 robust z-score,call
LOC440895 (two pore channel 3 pseudogene),1,2.9,inactive
LOC440895 (two pore channel 3 pseudogene),2,-0.323,inactive
LOC440895 (two pore channel 3 pseudogene),3,0.107,inactive
CYB5B (cytochrome b5 type B),1,1.7,inactive
CYB5B (cytochrome b5 type B),2,-0.658,inactive
CYB5B (cytochrome b5 type B),3,-0.679,inactive
ZNF710 (zinc finger protein 710),1,1.3,inactive
ZNF710 (zinc finger protein 710),2,0.149,inactive
ZNF710 (zinc finger protein 710),3,-1.27,inactive
KDM5C (lysine demethylase 5C),1,-1.24,inactive
KDM5C (lysine demethylase 5C),2,0.494,inactive
KDM5C (lysine demethylase 5C),3,0.865,inactive
ATF4 (activating transcription factor 4),1,0.209,inactive
ATF4 (activating transcription factor 4),2,-0.151,inactive
ATF4 (activating transcription factor 4),3,0.502,inactive
SLC30A6,1,-0.0615,inactive
SLC30A6,2,-0.308,inactive
SLC30A6,3,-0.272,inactive
CASP8AP2 (caspase 8 associated protein 2),1,-0.787,inactive
CASP8AP2 (caspase 8 associated protein 2),2,0.0255,inactive
CASP8AP2 (caspase 8 associated protein 2),3,-1.2,inactive
CD164 (CD164 molecule),1,2.48,inactive
CD164 (CD164 molecule),2,0.107,inactive
CD164 (CD164 molecule),3,0.207,inactive
OTOS (otospiralin),1,-1.08,inactive
OTOS (otospiralin),2,-0.767,inactive
OTOS (otospiralin),3,-0.382,inactive
DSCR9 (Down syndrome critical region 9),1,-0.73,inactive
DSCR9 (Down syndrome critical region 9),2,1.27,inactive
DSCR9 (Down syndrome critical region 9),3,1.67,inactive
FIBIN (fin bud initiation factor homolog),1,-0.109,inactive
FIBIN (fin bud initiation factor homolog),2,0.131,inactive
FIBIN (fin bud initiation factor homolog),3,0.988,inactive
TBX21 (T-box transcription factor 21),1,-0.631,inactive
TBX21 (T-box transcription factor 21),2,-0.451,inactive
TBX21 (T-box transcription factor 21),3,0.652,inactive
TMEM141 (transmembrane protein 141),1,1.59,inactive
TMEM141 (transmembrane protein 141),2,0.284,inactive
TMEM141 (transmembrane protein 141),3,0.144,inactive
SPAM1 (sperm adhesion molecule 1),1,1.7,inactive
SPAM1 (sperm adhesion molecule 1),2,-0.735,inactive
SPAM1 (sperm adhesion molecule 1),3,0.8,inactive
CEP20 (centrosomal protein 20),1,-0.193,inactive
CEP20 (centrosomal protein 20),2,1.32,inactive
CEP20 (centrosomal protein 20),3,-0.286,inactive
ADM5 (adrenomedullin 5 (putative)),1,-0.297,inactive
ADM5 (adrenomedullin 5 (putative)),2,-0.477,inactive
ADM5 (adrenomedullin 5 (putative)),3,-0.75,inactive

Ordered by “G2 robust z-score” (high to low): 5 of the entries above.
target,siRNA no.,G2 robust z-score,call
CD164 (CD164 molecule),3,0.207,inactive
OTOS (otospiralin),3,-0.382,inactive
DSCR9 (Down syndrome critical region 9),1,-0.73,inactive
OTOS (otospiralin),2,-0.767,inactive
OTOS (otospiralin),1,-1.08,inactive
